Measurements published in patent US20240317867A1.
No constants are given. Whether binding was seen depends on the method and setting. Some entries that bind do so weakly or less than the wild type.

Target: T1, IGFR-like receptor 2 (endogenous protein of mouse Min6 insulinoma cells) (mouse) (UniProt Q3UZV7)
T1 sequence (looked up): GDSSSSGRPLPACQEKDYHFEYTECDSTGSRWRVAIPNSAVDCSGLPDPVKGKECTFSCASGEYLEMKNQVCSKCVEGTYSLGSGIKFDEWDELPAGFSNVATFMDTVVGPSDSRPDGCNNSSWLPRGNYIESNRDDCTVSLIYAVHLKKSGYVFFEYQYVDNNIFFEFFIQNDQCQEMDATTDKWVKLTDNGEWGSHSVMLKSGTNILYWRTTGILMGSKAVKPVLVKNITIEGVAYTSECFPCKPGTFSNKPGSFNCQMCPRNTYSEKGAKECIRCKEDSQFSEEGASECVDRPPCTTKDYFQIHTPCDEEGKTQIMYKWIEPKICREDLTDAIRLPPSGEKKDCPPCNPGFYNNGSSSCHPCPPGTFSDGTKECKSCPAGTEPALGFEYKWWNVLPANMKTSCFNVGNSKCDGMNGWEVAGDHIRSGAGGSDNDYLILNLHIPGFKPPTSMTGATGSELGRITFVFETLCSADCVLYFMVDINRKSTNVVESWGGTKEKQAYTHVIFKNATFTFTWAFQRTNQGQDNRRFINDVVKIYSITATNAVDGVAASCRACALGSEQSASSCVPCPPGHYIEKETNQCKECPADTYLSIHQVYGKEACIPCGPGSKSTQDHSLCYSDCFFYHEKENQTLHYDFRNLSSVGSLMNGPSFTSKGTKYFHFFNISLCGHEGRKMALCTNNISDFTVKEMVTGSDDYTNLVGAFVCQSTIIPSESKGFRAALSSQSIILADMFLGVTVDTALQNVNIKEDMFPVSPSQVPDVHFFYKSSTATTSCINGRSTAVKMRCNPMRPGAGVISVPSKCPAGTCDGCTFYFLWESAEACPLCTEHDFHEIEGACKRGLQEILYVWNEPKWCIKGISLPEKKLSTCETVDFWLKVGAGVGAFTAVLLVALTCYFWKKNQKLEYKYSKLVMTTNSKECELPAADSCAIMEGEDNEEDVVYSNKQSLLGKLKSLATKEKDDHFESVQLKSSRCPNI
Experiment: immunoprecipitation from Min6 lysate, Western blot

B1: mAb28G11 (antibody against cytoplasmic domain of IGFR-I2) (antibody, V domains shown)
VH: DVQLQESGPGLVKPSQSLSLTCSVTGYSIISGYYWNWIRQFPGNKLEWMGYISYDGTIYYNPSLKNRISITRDTSKNQFFLKLNSVTTEDTATYYCAMRLGYWGQGTTLTVSS
VL: DIVMTQSPASLTVTAGEKVIMRCKSSQSLLNSGNQKNYLTWYQQKPGQPPKLLIYWASTKESGVPDRFTGSGSGTDFTLTISSVQAEDLAVYYCQNDYRYPFTFGSGTKLEIKR
B1 was tested, and the binding was “binds”.
